For the data set, the system named is mice. Kind of data set: Efficacy-risk indexes calculated from formalin paw test, rotarod test and sedation. It counts as in vivo. Conditions: for Efficacy-Risk (motor impairment × sedation) Index: Efficacy-Risk (Motor) Index / % sedation; for Efficacy-Risk (motor) Index: licking time (s) at 100 mg/kg / rotarod ED50 (mg/kg); for Efficacy-Risk (sedation) Index: licking time (s) at 100 mg/kg / sedation (%) at 300 mg/kg; for Safety margin over carbamazepine, Efficacy-Risk (motor impairment × sedation) Index / Safety margin over carbamazepine, Efficacy-Risk (motor) Index / Safety margin over carbamazepine, Efficacy-Risk (sedation) Index: ratio to carbamazepine index; for Safety margin over oxcarbazepine, Efficacy-Risk (motor impairment × sedation) Index / Safety margin over oxcarbazepine, Efficacy-Risk (motor) Index / Safety margin over oxcarbazepine, Efficacy-Risk (sedation) Index: ratio to oxcarbazepine index.

We go through four compounds from patent US20090209517A1, “Use of 5H-dibenz/b,f/azepine-5-carboxamide derivatives in the treatment of neuropathic pain and neurological disorders” (priority 2006, published 2009).

As to `NC(=O)N1c2ccccc2C[C@@H](O)c2ccccc21` [R-Lic, R-licarbazepine], the “Efficacy-Risk (motor impairment × sedation) Index” value was 0.019; the “Efficacy-Risk (motor) Index” value is recorded as 0.38; the “Efficacy-Risk (sedation) Index” value is recorded as 1.84; the “Safety margin over carbamazepine, Efficacy-Risk (motor impairment × sedation) Index” value is recorded as 10.6. Also, the “Safety margin over carbamazepine, Efficacy-Risk (motor) Index” value is on record as 2.1; the “Safety margin over carbamazepine, Efficacy-Risk (sedation) Index” value is on record as 34.6; the “Safety margin over oxcarbazepine, Efficacy-Risk (motor impairment × sedation) Index” value is 85.1; the “Safety margin over oxcarbazepine, Efficacy-Risk (motor) Index” value is given as 18.9. The “Safety margin over oxcarbazepine, Efficacy-Risk (sedation) Index” value is recorded as 165.2.

Turning to `CC(=O)O[C@H]1Cc2ccccc2N(C(N)=O)c2ccccc21` [ESL, S-(−)-10-acetoxy-10,11-dihydro-5H-dibenz/b,f/azepine-5-carboxamide], the “Efficacy-Risk (motor impairment × sedation) Index” value is recorded as 0.024; the “Efficacy-Risk (motor) Index” value is 0.24; the “Efficacy-Risk (sedation) Index” value is on record as 3.36; the “Safety margin over carbamazepine, Efficacy-Risk (motor impairment × sedation) Index” value is on record as 13.5. The “Safety margin over carbamazepine, Efficacy-Risk (motor) Index” value is 1.4; the “Safety margin over carbamazepine, Efficacy-Risk (sedation) Index” value is given as 63.4; the “Safety margin over oxcarbazepine, Efficacy-Risk (motor impairment × sedation) Index” value is recorded as 109.1; the “Safety margin over oxcarbazepine, Efficacy-Risk (motor) Index” value is reported as 12.1. Further, the “Safety margin over oxcarbazepine, Efficacy-Risk (sedation) Index” value is listed as 302.4. Also, for the setting “mouse, in vivo”, the “Efficacy-Risk (motor) Index relative to that observed for CBZ” value was 1.4 fold.

As to `NC(=O)N1c2ccccc2CC(=O)c2ccccc21` [Oxc, oxcarbazepine, reference compound], the “Efficacy-Risk (motor impairment × sedation) Index” value is 0.000; the “Efficacy-Risk (motor) Index” value is 0.02; the “Efficacy-Risk (sedation) Index” value was 0.01; the “Safety margin over carbamazepine, Efficacy-Risk (motor impairment × sedation) Index” value is 0.1. Also, the “Safety margin over carbamazepine, Efficacy-Risk (motor) Index” value is 0.1; the “Safety margin over carbamazepine, Efficacy-Risk (sedation) Index” value is on record as 0.2; the “Safety margin over oxcarbazepine, Efficacy-Risk (motor impairment × sedation) Index” value is on record as 1.0; the “Safety margin over oxcarbazepine, Efficacy-Risk (motor) Index” value is on record as 1.0. The “Safety margin over oxcarbazepine, Efficacy-Risk (sedation) Index” value was 1.0.

With `NC(=O)N1c2ccccc2C=Cc2ccccc21` [CBZ, carbamazepine, reference compound], the “Efficacy-Risk (motor impairment × sedation) Index” value is given as 0.002; the “Efficacy-Risk (motor) Index” value was 0.18; the “Efficacy-Risk (sedation) Index” value is 0.05; the “Safety margin over carbamazepine, Efficacy-Risk (motor impairment × sedation) Index” value is recorded as 1.0. The “Safety margin over carbamazepine, Efficacy-Risk (motor) Index” value is reported as 1; the “Safety margin over carbamazepine, Efficacy-Risk (sedation) Index” value was 1.0; the “Safety margin over oxcarbazepine, Efficacy-Risk (motor impairment × sedation) Index” value is on record as 8.1; the “Safety margin over oxcarbazepine, Efficacy-Risk (motor) Index” value was 9.0. In addition, the “Safety margin over oxcarbazepine, Efficacy-Risk (sedation) Index” value is 4.8.
